± gives the standard deviation of the averaged measurements. Some of the results follow.
Columns and labels:
Assay in all cases: NP40-soluble protein abundance relative to vehicle (solubility fold change) (ratio); higher = more soluble protein in presence of GTP
PLCL2 = target: T1, PLCL2 (UniProt Q9UPR0)
T1 sequence (whole entry): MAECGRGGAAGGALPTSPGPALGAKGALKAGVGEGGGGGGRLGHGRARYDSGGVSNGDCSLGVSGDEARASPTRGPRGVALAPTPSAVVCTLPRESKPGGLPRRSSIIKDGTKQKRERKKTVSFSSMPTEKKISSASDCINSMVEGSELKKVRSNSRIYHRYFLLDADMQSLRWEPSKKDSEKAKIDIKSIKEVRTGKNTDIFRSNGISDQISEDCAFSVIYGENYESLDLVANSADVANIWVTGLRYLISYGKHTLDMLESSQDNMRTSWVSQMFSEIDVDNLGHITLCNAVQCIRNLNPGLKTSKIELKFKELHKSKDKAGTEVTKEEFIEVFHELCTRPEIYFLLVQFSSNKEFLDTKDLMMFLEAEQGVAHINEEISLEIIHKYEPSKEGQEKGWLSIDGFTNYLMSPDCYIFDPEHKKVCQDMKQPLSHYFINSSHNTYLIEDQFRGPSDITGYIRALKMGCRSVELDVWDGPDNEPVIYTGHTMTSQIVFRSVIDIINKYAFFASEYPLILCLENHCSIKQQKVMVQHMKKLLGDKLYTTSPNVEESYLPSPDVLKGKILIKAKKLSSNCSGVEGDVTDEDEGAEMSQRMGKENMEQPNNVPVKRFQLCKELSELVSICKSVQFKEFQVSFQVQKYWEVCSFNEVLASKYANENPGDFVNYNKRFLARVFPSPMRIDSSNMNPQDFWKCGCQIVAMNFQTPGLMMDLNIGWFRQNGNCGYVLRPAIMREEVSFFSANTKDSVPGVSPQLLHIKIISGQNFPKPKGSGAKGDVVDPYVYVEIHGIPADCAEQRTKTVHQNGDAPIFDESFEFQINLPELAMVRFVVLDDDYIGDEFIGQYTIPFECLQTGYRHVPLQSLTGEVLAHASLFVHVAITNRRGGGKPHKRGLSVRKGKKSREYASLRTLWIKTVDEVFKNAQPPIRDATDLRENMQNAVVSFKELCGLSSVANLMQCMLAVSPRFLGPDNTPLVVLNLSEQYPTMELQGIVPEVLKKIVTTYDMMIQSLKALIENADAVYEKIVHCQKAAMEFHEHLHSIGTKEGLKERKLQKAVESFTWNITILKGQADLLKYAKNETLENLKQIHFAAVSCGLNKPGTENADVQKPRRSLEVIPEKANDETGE
Method in brief: (§1)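 Each value is a fold change relative to the detergent-processed vehicle, calculated per replicate from vsn-normalised intensities. Jurkat crude lysate received eight concentrations (0.1 to 10 mM) for 10 min at room temperature and 3 min at 37 °C, then was solubilised in 0.8% NP40 with benzonase (60 min, 4 °C). The ultracentrifuged supernatant was TMT-labelled and run by LC-MS/MS in three independent experiments.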

RRP15 = target: T2, RRP15 (UniProt Q9Y3B9)
T2 sequence (whole entry): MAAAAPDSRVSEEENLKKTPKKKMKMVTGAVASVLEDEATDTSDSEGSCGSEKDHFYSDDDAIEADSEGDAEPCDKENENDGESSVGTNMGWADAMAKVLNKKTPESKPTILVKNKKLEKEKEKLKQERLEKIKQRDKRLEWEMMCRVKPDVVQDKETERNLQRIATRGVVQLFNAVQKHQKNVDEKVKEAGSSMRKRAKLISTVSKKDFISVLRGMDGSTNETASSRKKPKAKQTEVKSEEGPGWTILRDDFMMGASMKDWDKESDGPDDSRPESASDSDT
Method in brief: as §1

SNX6 = target: T3, SNX6 (UniProt Q9UNH7)
T3 sequence (whole entry): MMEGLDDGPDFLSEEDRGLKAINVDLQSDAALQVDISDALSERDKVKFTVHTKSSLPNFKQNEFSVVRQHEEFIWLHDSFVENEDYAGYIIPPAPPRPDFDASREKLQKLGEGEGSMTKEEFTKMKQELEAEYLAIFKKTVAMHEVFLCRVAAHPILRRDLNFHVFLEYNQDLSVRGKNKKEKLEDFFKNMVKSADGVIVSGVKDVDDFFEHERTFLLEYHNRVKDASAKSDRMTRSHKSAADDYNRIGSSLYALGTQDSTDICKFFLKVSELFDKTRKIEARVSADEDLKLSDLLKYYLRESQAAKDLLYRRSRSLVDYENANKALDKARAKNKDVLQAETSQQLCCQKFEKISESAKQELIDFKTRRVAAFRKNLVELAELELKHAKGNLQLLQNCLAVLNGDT
Method in brief: as §1

[1] = target: T4, UniProt Q9Y2K1 and related entries
T4 sequence (whole entry): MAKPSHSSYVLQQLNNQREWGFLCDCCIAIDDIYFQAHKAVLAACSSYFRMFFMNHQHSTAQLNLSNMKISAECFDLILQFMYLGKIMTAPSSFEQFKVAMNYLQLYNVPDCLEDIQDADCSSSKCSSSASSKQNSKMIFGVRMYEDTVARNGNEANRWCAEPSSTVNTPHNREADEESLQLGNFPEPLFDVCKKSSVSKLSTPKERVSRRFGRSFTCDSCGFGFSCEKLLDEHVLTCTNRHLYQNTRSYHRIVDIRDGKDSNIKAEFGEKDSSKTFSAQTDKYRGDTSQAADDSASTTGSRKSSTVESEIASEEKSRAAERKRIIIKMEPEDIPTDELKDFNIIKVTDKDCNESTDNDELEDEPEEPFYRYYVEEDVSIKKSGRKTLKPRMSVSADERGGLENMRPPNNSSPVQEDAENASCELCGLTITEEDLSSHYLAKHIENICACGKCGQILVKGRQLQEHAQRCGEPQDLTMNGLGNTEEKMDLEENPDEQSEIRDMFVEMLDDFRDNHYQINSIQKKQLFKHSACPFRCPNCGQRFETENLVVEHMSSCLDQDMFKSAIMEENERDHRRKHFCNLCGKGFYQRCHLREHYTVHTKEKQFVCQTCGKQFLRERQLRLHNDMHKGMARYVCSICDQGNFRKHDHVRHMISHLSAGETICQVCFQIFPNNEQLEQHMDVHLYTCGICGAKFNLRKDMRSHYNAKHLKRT
Method in brief: as §1

## Nc1nc2c(ncn2[C@@H]2O[C@H](COP(=O)(O)OP(=O)(O)OP(=O)(O)O)[C@@H](O)[C@H]2O)c(=O)[nH]1 [guanosine triphosphate]
PLCL2; concentration: 0.1mM
  NP40-soluble protein abundance: 1.06 ± 0.034
PLCL2; concentration: 0.5mM
  NP40-soluble protein abundance: 1.07 ± 0.078
PLCL2; concentration: 1mM
  NP40-soluble protein abundance: 0.994 ± 0.06
PLCL2; concentration: 2mM
  NP40-soluble protein abundance: 0.986 ± 0.057
PLCL2; concentration: 4mM
  NP40-soluble protein abundance: 0.9903 ± 0.0089
PLCL2; concentration: 6mM
  NP40-soluble protein abundance: 0.924 ± 0.029
PLCL2; concentration: 8mM
  NP40-soluble protein abundance: 0.955 ± 0.016
PLCL2; concentration: 10mM
  NP40-soluble protein abundance: 0.933 ± 0.078
RRP15; concentration: 0.1mM
  NP40-soluble protein abundance: 0.914 ± 0.12
RRP15; concentration: 0.5mM
  NP40-soluble protein abundance: 0.98 ± 0.03
RRP15; concentration: 1mM
  NP40-soluble protein abundance: 0.995 ± 0.058
RRP15; concentration: 2mM
  NP40-soluble protein abundance: 1.08 ± 0.052
RRP15; concentration: 4mM
  NP40-soluble protein abundance: 1.1 ± 0.037
RRP15; concentration: 6mM
  NP40-soluble protein abundance: 1.16 ± 0.066
RRP15; concentration: 8mM
  NP40-soluble protein abundance: 1.15 ± 0.011
RRP15; concentration: 10mM
  NP40-soluble protein abundance: 1.3 ± 0.027
SNX6; concentration: 0.1mM
  NP40-soluble protein abundance: 0.972 ± 0.0099
SNX6; concentration: 0.5mM
  NP40-soluble protein abundance: 0.943 ± 0.028
SNX6; concentration: 1mM
  NP40-soluble protein abundance: 0.954 ± 0.036
SNX6; concentration: 2mM
  NP40-soluble protein abundance: 0.891 ± 0.039
SNX6; concentration: 4mM
  NP40-soluble protein abundance: 0.91 ± 0.048
SNX6; concentration: 6mM
  NP40-soluble protein abundance: 0.889 ± 0.058
SNX6; concentration: 8mM
  NP40-soluble protein abundance: 0.912 ± 0.042
SNX6; concentration: 10mM
  NP40-soluble protein abundance: 0.876 ± 0.051
[1]; concentration: 0.1mM
  NP40-soluble protein abundance: 1.09 ± 0.12
[1]; concentration: 0.5mM
  NP40-soluble protein abundance: 1.13 ± 0.12
[1]; concentration: 1mM
  NP40-soluble protein abundance: 1.18 ± 0.17
[1]; concentration: 2mM
  NP40-soluble protein abundance: 1.21 ± 0.12

— the supplement of paper PMC6411743
